# Tested on: cardiomyocytes induced from human iPS cells (253G1 strain)
# Experiment: Proliferation culture of cardiomyocytes with WNT signal activator CHIR99021, serial subculture (Example 2)
# Format: cell-based
# Settings: CHIR99021 3 μM; for average maximum length of multinucleated cardiomyocytes: 2.0×10^5 cells/cm^2
# Protocol: A “ratio of multinucleated cardiomyocytes” was determined from a percentage of multinucleated cardiomyocytes in 10,000 cardiomyocytes.
# Thereafter, the culture medium was replaced every 3 to 4 days, and culturing was performed for 2 weeks (a first serial subculture).
# For the cells obtained after each serial subculture, “cardiomyocyte purity”, “cardiomyocyte proliferation rate”, “ratio of multinucleated cardiomyocytes”, and “average maximum length of multinucleated cardiomyocytes” were determined according to the same procedure as in Example 1.
structure (smiles),measurement,setting,value
"Cc1cnc(-c2cnc(NCCNc3ccc(C#N)cn3)nc2-c2ccc(Cl)cc2Cl)[nH]1 [CHIR99021, 6-[2-[[4-(2,4-dichlorophenyl)-5-(5-methyl-1H-imidazol-2-yl)pyrimidin-2-yl]amino]ethylamino]pyridine-3-carbonitrile]",average maximum length of multinucleated cardiomyocytes,after first serial subculture,85 μm
same,sarcomeric structures in multinucleated cardiomyocytes,after first serial subculture,striped sarcomeric structures were observed
same,sarcomeric structures in multinucleated cardiomyocytes,"after third serial subculture, compared with first",a clearer striped structure could be observed
same,average maximum length of multinucleated cardiomyocytes,after third serial subculture,106 μm
